{"source": "paper PMC9518283", "about": "(Journal of Enzyme Inhibition and Medicinal Chemistry, 2022)", "conditions": "class from PAMPA Pe", "data": [{"molecule": "NS(=O)(=O)c1cc(C(=O)O)c(NCc2ccco2)cc1Cl", "note": "[Furosemide]", "values": [{"measurement": "CNS predicted availability", "result": "CNS− (CNS – (low BBB permeation predicted): Pe (×10^−6 cm s^−1) < 2.0)"}]}]}
